These are yes or no findings as the source states them, for the method shown. For some of these results: Binding seen in cells or lysates may run through a third protein. Some results given as binding are weak or reduced against the parent protein; the word gives no strength. Where a sequence is shown, tags or fusion partners need not be part of it. One block for each binder: values may come before it.
Assays:
[1] = target: T1, GST-Mitch (Drosophila (D. melanogaster)) (UniProt Q9V3V7); experiment: pull-down; lysates from S2 cells expressing HA-tagged SFs incubated at 4°C for 2 hr with GST-fusion proteins or GST alone; Western blotting with anti-HA; only the target purified
T1 sequence: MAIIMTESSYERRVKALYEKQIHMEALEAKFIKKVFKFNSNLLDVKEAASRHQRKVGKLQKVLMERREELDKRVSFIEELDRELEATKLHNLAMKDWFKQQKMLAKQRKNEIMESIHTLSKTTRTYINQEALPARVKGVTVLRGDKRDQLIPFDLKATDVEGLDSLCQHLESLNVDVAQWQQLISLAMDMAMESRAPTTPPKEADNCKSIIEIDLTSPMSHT

[2] = target: T2, GST-HOAP (Drosophila (D. melanogaster)) (UniProt Q95RV2); experiment: pull-down; bacterially expressed purified proteins; GST-Mitch (60 nM), GST-Nuf2 (50 nM), GST-Ndc80 (40 nM) or GST (200 nM) on glutathione beads incubated at 4°C for 2 hr with 6His-Sf3A2 (20 nM) or 6His-Prp31 (20 nM) in NETN buffer (20 mM Tris-HCl, pH 8, 100 mM NaCl, 1 mM EDTA, 0.5% NP-40); both purified
T2 sequence: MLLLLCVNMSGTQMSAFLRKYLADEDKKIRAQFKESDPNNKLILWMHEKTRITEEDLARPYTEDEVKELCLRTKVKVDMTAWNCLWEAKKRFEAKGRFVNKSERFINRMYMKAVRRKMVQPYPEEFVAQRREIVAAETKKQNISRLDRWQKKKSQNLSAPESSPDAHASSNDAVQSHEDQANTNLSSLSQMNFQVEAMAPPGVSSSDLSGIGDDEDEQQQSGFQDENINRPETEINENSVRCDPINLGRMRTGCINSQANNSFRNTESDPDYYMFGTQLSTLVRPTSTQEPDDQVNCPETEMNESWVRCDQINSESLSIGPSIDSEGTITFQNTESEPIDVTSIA

[3] = target: T1, GST-Mitch (Drosophila (D. melanogaster)); experiment: as above
[4] = target: T3, GST-Ver (Drosophila (D. melanogaster)) (UniProt Q9VTZ2); experiment: as above
T3 sequence: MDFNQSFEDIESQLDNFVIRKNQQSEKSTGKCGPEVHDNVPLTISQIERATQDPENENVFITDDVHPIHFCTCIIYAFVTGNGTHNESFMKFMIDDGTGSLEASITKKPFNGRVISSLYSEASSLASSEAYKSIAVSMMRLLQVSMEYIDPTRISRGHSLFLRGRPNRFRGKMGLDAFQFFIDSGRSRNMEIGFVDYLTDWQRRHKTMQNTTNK

binding [1]: binds
B1: 3HA-Prp31 (protein, UniProt Q9VUM1 1-501)
chain: MSLADELLADLEEDNDNELEEEDSEMASAEDESLLAEKLAKPAPNLMDVDVTVQSVRELCKLRDSERLKNTLQQIEHYASRQRTAAEMLGSVESDPEYCLIVDANAIAVDIDNEISIVHKFTKEKYQKRFPELDSLIVGEIEYLLAVKELGNDLDQVKNNEKLQAILTQATIMIVSVTASTTQGTMLTPAEKAKIDEACEMAIELNNFKSKIYEYVESRMTFIAPNLSMIVGASTAAKLLGIAGGLSKLSKMPACNVQVLGAQKKTLSGFSQTQMLPHTGYVYYSQIVQDTAPDLRRKAARLVAAKSVLAARVDACHESVHGEIGLRFKEDVEKKLDKLQEPPPVKFIKPLPKPIEGSKKKRGGKRVRKMKERYALTEFRKQANRMNFGDIEEDAYQGDLGYSRGTIGKTGTGRIRLPQVDEKTKVRISKTLHKNLQKQQVYGGNTTVKRQISGTASSVAFTPLQGLEIVNPQAAERSQTEANAKYFSNTSGFMSVGQRTT

binding [2]: no binding
binding [3]: binds
binding [4]: no binding
B2: 6His-Prp31 (protein, UniProt Q9VUM1 1-501)
chain: B1 chain
